This passage reports step yield and isolated yield results from patent US4600705A (Richter Gedeon Veyteszeti Gyar R.T., priority 1983, dated 1986).

A short description of the series: general procedure: Boc solid-phase peptide synthesis; azide fragment coupling; pentafluorophenyl esters; diisopropyl carbodiimide.

HELM strings list residues between dots; [ac] is acetyl, [am] amide, other brackets name non-standard units.

Turning to Glp-His-Trp-Ser-Tyr-Asp(OBzl)-IND, the step yield (coupling step) is recorded as 60%.
With Glp-His-Trp-Ser-Tyr-Asp-IND, the step yield (late stage modification step) came to 83%.
Turning to “PEPTIDE1{[Glp].H.W.S.Y.[bAsp-ANI].L.R.P.G.[am]}$$$$V2.0”, under “whole synthesis”, the isolated yield stood at 12.5%.
